{"sequences": {"note": "Amino acid sequences for entries named in this document (tags omitted).", "UniProt Q8NER1, whole entry, looked up": "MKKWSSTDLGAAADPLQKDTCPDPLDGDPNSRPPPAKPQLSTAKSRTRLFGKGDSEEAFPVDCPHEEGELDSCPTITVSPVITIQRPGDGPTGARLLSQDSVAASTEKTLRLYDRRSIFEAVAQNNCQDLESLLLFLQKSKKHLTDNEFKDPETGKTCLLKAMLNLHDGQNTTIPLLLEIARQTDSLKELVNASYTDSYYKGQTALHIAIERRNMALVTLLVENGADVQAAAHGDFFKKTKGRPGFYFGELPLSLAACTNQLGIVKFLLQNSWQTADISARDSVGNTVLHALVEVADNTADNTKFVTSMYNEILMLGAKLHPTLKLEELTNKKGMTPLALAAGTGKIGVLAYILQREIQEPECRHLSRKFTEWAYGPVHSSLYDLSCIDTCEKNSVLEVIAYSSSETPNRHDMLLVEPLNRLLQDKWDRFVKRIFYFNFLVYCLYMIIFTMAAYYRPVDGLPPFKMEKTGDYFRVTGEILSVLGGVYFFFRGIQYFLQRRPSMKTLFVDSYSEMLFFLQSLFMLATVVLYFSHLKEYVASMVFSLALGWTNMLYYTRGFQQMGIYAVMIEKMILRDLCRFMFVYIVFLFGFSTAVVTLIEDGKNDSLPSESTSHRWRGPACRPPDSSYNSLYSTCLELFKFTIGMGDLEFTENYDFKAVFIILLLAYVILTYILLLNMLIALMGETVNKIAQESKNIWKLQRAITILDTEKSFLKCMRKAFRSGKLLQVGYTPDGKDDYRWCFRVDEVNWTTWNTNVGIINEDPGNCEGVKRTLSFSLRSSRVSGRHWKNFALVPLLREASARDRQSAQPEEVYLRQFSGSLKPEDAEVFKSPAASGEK"}, "source": "PubChem BioAssay AID540275", "about": "(National Center for Advancing Translational Sciences (NCATS), 2011)", "note": "Out of some 320,000 compounds screened, about 620 (0.19%) were called active. The inconclusive results got no clear call from the source; some entries with a clear call stand among them for comparison. Rule as the data show it: active = activation above about 80%; inconclusive = between about 30% and that limit; inactive = weaker than that.", "data": [{"biological_target": "Transient receptor potential cation channel subfamily V member 1 (Homo sapiens) (UniProt Q8NER1)", "test": "HTS Assay for Compounds that Act as Agonists of the Vanilloid Receptor 1; as to activation: 0% is about no effect", "conditions": "TRPV1-expressing cells, Fluo-8 calcium influx, agonist mode; at 8.33 µM, hits give high values", "in_short": "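Cells expressing TRPV1 were dye-loaded with Fluo-8 and read kinetically: 10 s baseline, 3 min after compound (agonist portion), then 2 min after EC20 capsaicin (allosteric enhancer portion). Calcium-bound dye fluorescence at 480/520 nm.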", "values": [{"compound": "Cc1ccc(CN(C)C(=O)c2ccc(S(=O)(=O)N(C)c3ccccc3)cc2)o1", "activation": "inactive: 22.3%"}, {"compound": "CC(C)(C)OC(=O)NC(CNCc1ccccc1)Cc1ccccc1", "note": "(centres undefined)", "activation": "inconclusive: 46.8%"}, {"compound": "O=C(Nc1ccc(Cl)c(C(F)(F)F)c1)C(=O)N1CCCCC1", "activation": "inconclusive: 31.6%"}, {"compound": "O=C(/C=C/c1ccccc1)NCCSCc1ccccc1Cl", "activation": "inconclusive: 47.5%"}, {"compound": "Cn1c(NCc2ccco2)nc2c1c(=O)n(Cc1ccc(Br)cc1)c(=O)n2C", "activation": "inconclusive: 40.6%"}, {"compound": "CCN1C(=O)CC(C(=O)Nc2ccc(F)cc2)SC1=Nc1ccc2c(c1)OCO2", "note": "(centres undefined)", "activation": "inconclusive: 33%"}, {"compound": "Cc1n[nH]c(C)c1N1C(=O)c2cccc3c(N4CCCCCC4)ccc(c23)C1=O", "activation": "inconclusive: 71.1%"}, {"compound": "O=C(CNc1cccc2ccccc12)N/N=C/c1ccc([N+](=O)[O-])o1", "activation": "inactive: -2.42%"}, {"compound": "O=C(CNS(=O)(=O)c1ccc(Cl)c(C(F)(F)F)c1)NC1CCCCC1", "activation": "inconclusive: 32.8%"}, {"compound": "CCOc1ccc(C(=O)Nc2ccc(Cc3ccncc3)cc2)cc1Br", "activation": "inconclusive: 49.8%"}, {"compound": "CCC(C)n1c(SCC(=O)NC2CCCC2)nc2ccccc2c1=O", "note": "(centres undefined)", "activation": "inconclusive: 31.2%"}, {"compound": "CCCCC(=O)Nc1cccc(-c2csc(-c3ccccc3)n2)c1", "activation": "inconclusive: 30.3%"}, {"compound": "O=C(NCC1(c2ccccc2)CCCC1)C1(c2ccccc2)CCCC1", "activation": "inconclusive: 35.9%"}, {"compound": "COCCN1C(=O)Cc2c1nc(N)c1c(N)nc(N3CCN(c4ccc(F)cc4)CC3)c(C#N)c21", "activation": "inactive: -2.81%"}, {"compound": "CCCCN1C(=O)c2ccc(C(=O)Nc3cccnc3)cc2C1=O", "activation": "inconclusive: 70.3%"}, {"compound": "CSc1nc(C)c2c(n1)N(c1cccc(C)c1)CC2", "activation": "inconclusive: 31%"}, {"compound": "O=C(COc1ccc2c(c1)CCC2)NCc1cccc(Cl)c1", "activation": "inconclusive: 36.2%"}, {"compound": "O=C(N/N=C/c1ccc(Cl)cc1Cl)c1cccc(F)c1", "activation": "inconclusive: 56.1%"}, {"compound": "COc1ccc(CN(C(=O)c2cccs2)c2ccccc2)cc1", "activation": "inconclusive: 35.1%"}, {"compound": "[2H]C(CCOS(N)(=O)=O)c1ccc(C(C)(C)C)cc1", "note": "(centres undefined)", "activation": "inconclusive: 42%"}, {"compound": "CCOC(=O)c1c(NC(=O)Nc2ccccc2)sc(C)c1C", "activation": "inconclusive: 44.4%"}, {"compound": "COc1ccc(N(CC(=O)N2c3ccccc3CC2C)S(=O)(=O)c2c(C)noc2C)cc1", "note": "(centres undefined)", "activation": "inactive: 7.76%"}, {"compound": "Cc1cc(O)cc(=O)n1C", "activation": "inconclusive: 38%"}, {"compound": "COc1ccc(CCNC(=S)NCCc2ccc(OC)c(OC)c2)cc1OC", "activation": "inconclusive: 46.3%"}, {"compound": "CC1(C)Oc2ccc3ccc(=O)oc3c2/C(=C/NC2CCCCC2)C1=O", "activation": "inconclusive: 47.1%"}, {"compound": "CCCCc1ccc(NC(=S)N2CCCC(CO)C2)cc1", "note": "(centres undefined)", "activation": "inconclusive: 49.6%"}, {"compound": "COc1ccc(C(=O)Nn2c(SCc3cccc([N+](=O)[O-])c3)nc3ccccc3c2=O)cc1", "activation": "inconclusive: 35.5%"}, {"compound": "S=C(Nc1ccccc1Cl)NC1CCCCCC1", "activation": "inconclusive: 57.4%"}, {"compound": "Cc1coc2c(C)c3oc(=O)c(CCC(=O)NCCCN4CCOCC4)c(C)c3cc12", "activation": "inactive: -2.31%"}, {"compound": "COC(=O)CN1C(=O)S/C(=C/c2ccc(N3CCCCC3)o2)C1=O", "activation": "inconclusive: 37.2%"}, {"compound": "O=C(c1ccc(F)cc1)c1ccc(-c2ccc(F)cc2)nc1", "activation": "inconclusive: 62.2%"}, {"compound": "O=[N+]([O-])c1cccc(/C=N/Nc2nc(NCc3ccccc3)nc(N3CCOCC3)n2)c1O", "activation": "inconclusive: 50.9%"}, {"compound": "Cc1ccc(C2C3=C(CC(C)(C)CC3=O)NC3=C2C(=O)c2ccccc23)cc1", "note": "(centres undefined)", "activation": "inconclusive: 50.7%"}, {"compound": "COc1ccc(CCn2c(C(C)C)nc3c(c(=O)c4ccccc4n3C)c2=O)cc1", "activation": "inactive: 11.6%"}, {"compound": "CSc1ccc(CNc2cccc3ccccc23)cc1", "activation": "inactive: 5.14%"}, {"compound": "O=C(NCCC1=CCCCC1)c1cc2c(s1)CS(=O)(=O)C2", "activation": "inconclusive: 71.4%"}, {"compound": "Cc1ccc(C(=O)NCCc2cccs2)cc1", "activation": "inconclusive: 62.5%"}, {"compound": "O=C(N/N=C\\c1cccnc1)c1ccc(Br)s1", "activation": "inconclusive: 59.7%"}, {"compound": "CCCCn1c(C)cc2c(c1=O)C1O[C@](CCCC)(Cc3cc(C#N)ccc31)O2", "activation": "inactive"}, {"compound": "COc1cc2c(C(=O)N3CCOCC3)c(CSc3ccccc3)n(C)c2cc1Br", "activation": "inconclusive: 67.7%"}, {"compound": "Cc1cc(C)cc(OCC(=O)N/N=C/c2ccc([N+](=O)[O-])o2)c1", "activation": "inactive: 2.28%"}, {"compound": "N#Cc1ccc(NC(=O)Nc2ccc(Oc3ccc(NC(=O)Nc4ccc(C#N)cc4)cc3)cc2)cc1", "activation": "inconclusive: 44.3%"}, {"compound": "CCCCn1c(N)c(N(CC(C)C)C(=O)c2oc3ccc(OCC)cc3c2C)c(=O)[nH]c1=O", "activation": "inactive: -3.19%"}, {"compound": "Cc1ccc(-c2csc(CC(N)=O)n2)cc1", "activation": "inconclusive: 31.8%"}, {"compound": "Cc1cc(NC(=O)c2ccco2)c(=O)n(Cc2c(F)cccc2Cl)c1", "activation": "inconclusive: 38.5%"}, {"compound": "Cc1ccnc(NC(=O)CCCc2c[nH]c3ccccc23)c1", "activation": "inconclusive: 38.8%"}, {"compound": "COc1ccc(NC(=O)Nc2cc(C)ccc2F)cc1OC", "activation": "inconclusive: 52.8%"}, {"compound": "CCCCCCn1cnc2c(c1=O)c1nc3ccccc3nc1n2/N=C/c1ccco1", "activation": "inactive: -3.43%"}, {"compound": "COc1ccc(CNC(=O)COC(=O)/C=C/c2cccc(Br)c2)cc1OC", "activation": "active: 86.6%"}, {"compound": "CCOc1ccc(-c2csc3ncn(-c4ccc(OC)cc4)c(=O)c23)cc1", "activation": "inactive: 2.92%"}, {"compound": "CCOC(=O)CC(NS(=O)(=O)c1ccc2[nH]c(=O)sc2c1)c1ccc(C)cc1", "note": "(centres undefined)", "activation": "inconclusive: 33.7%"}, {"compound": "O=C(CC1CC2CCC1C2)NC1CCCCCCC1", "note": "(centres undefined)", "activation": "inconclusive: 54.4%"}, {"compound": "CC(Nc1nc(Nc2ccc(F)cc2)nc(SCC(N)=O)n1)c1ccccc1", "note": "(centres undefined)", "activation": "inconclusive: 78.5%"}, {"compound": "CNc1ccc(/C=C(\\C#N)C(=O)Nc2ccccn2)cc1[N+](=O)[O-]", "activation": "inactive: -2.19%"}, {"compound": "O=C(Nc1ccccc1)N1CCN(Cc2ccc(Cl)cc2)CC1", "activation": "inconclusive: 44%"}, {"compound": "O=C(CSc1nc2ccccc2c(=O)n1CCCN1CCOCC1)NC12CC3CC(CC(C3)C1)C2", "activation": "inconclusive: 45.4%"}, {"compound": "CC(=O)c1c[nH]c(C(=O)Nc2ccc(N3CCCCCC3)cc2)c1", "activation": "inconclusive: 68.9%"}, {"compound": "S=C(NCc1ccc(Cl)cc1Cl)NC1CCCCC1", "activation": "inconclusive: 46.3%"}, {"compound": "COc1ccc2nc(N=NC3=C(O)CC(C)(C)CC3=O)sc2c1", "activation": "inactive: -5.05%"}, {"compound": "CCc1ccc2oc(=O)cc(CN(C)Cc3ccccc3)c2c1", "activation": "inconclusive: 50.7%"}, {"compound": "CCCn1c(SCC(=O)N2CCCc3ccccc32)nc2c1c(=O)n(C)c(=O)n2C", "activation": "inconclusive: 36.1%"}, {"compound": "CC(=O)N(CCc1ccccc1C)Cc1cc2cc(C)ccc2[nH]c1=O", "activation": "inconclusive: 43.3%"}, {"compound": "COc1cccc(/C=C/C(=O)Nc2ccc3[nH]c(=O)[nH]c3c2)c1", "activation": "active: 93.3%"}, {"compound": "C=CCC1(CC=C)CCCN1C(=O)c1cc(COc2cccc(OC)c2)on1", "activation": "inconclusive: 30.3%"}, {"compound": "CCOC(=O)c1c(-c2ccccc2)csc1NC(=O)c1ccc(S(=O)(=O)N2CCOCC2)cc1", "activation": "inconclusive: 44.2%"}, {"compound": "CC(NC(=O)/C(C#N)=C/c1cn(-c2ccccc2)nc1-c1ccc(F)cc1)c1ccccc1", "note": "(centres undefined)", "activation": "inconclusive: 31.3%"}, {"compound": "Cc1cc(Cl)c(S(=O)(=O)N2CCSCC2)cc1OCC(=O)NC1CCCCC1", "activation": "inconclusive: 65.5%"}, {"compound": "COc1ccc(NC(=O)c2ccc3c(c2)C(=O)N(CC2CCCO2)C3=O)cc1O", "note": "(centres undefined)", "activation": "inconclusive: 42.9%"}, {"compound": "Cc1nc(N2CCC(C)CC2)c2c(C)c(C(=O)Nc3ccccc3C(F)(F)F)sc2n1", "activation": "inconclusive: 30.1%"}, {"compound": "O=C(Nc1ccc(S(=O)(=O)N2CCCCC2)cc1)c1ccc(CN2CCOCC2)cc1", "activation": "inconclusive: 49.8%"}, {"compound": "CC(C)(C)OC(=O)N1CCC[C@H]1c1nnc(SCc2ccc(Cl)cc2)o1", "activation": "inconclusive: 31%"}, {"compound": "CCOc1ccc(CN(C(=O)/C=C/c2ccco2)C2CCS(=O)(=O)C2)cc1", "note": "(centres undefined)", "activation": "inactive: 1.76%"}, {"compound": "CC(C)(C)c1ccc(C(=O)NNC(=O)Cc2ccccc2)cc1", "activation": "inconclusive: 49%"}, {"compound": "Cc1ccc(-c2ccnc3nc(-n4cccc4)nn23)o1", "activation": "inconclusive: 36%"}, {"compound": "CC(C)(C)c1ccc(-n2ncc3c2CCCC3NC(=O)CN2CCOC2=O)cc1", "note": "(centres undefined)", "activation": "inactive: 7.45%"}, {"compound": "COc1ccc(-c2nnn(CCC(=O)O)n2)cc1", "activation": "inactive: 3%"}, {"compound": "Nc1nonc1-c1nc2ccccc2n1CC(=O)N/N=C\\c1ccc(-c2ccc(Cl)cc2)o1", "activation": "inactive: 3.46%"}, {"compound": "CC1CN(C(=O)/C(C#N)=C2\\N=C(NC(=O)c3ccccc3Cl)c3ccccc32)CC(C)O1", "note": "(centres undefined)", "activation": "inactive: -0.141%"}, {"compound": "COC(=O)c1cccnc1NC(=S)NC1CCCCC1", "activation": "inconclusive: 38.4%"}, {"compound": "C=CCn1c(C)cc(C(=O)CSc2nc3ccccc3[nH]2)c1C", "activation": "inconclusive: 41.1%"}, {"compound": "O=C(O)c1ccc(-c2ccc(/C=N/Nc3ccc([N+](=O)[O-])cc3)o2)cc1", "activation": "inconclusive: 77.5%"}, {"compound": "N=c1c(C(=O)NCc2ccc(F)cc2)cc2c(=O)n3ccccc3nc2n1Cc1ccco1", "activation": "inconclusive: 64.3%"}, {"compound": "O=C(Nc1ccc(Br)cc1)c1cccc(OC(=S)N2CCOCC2)c1", "activation": "inconclusive: 54.8%"}, {"compound": "Cc1cc(Br)ccc1OCC(=O)NNC(=O)c1cnccn1", "activation": "inactive: -2.22%"}, {"compound": "COc1ccc(/C=C(/CC(=O)NCc2ccc(Cl)cc2)c2nc3ccccc3s2)cc1", "activation": "inconclusive: 70.4%"}, {"compound": "CC(C)(C)c1cc(CCC(=O)NN)cc(C(C)(C)C)c1O", "activation": "inconclusive: 47.3%"}, {"compound": "O=C(Nc1ccc2c(c1)OCO2)C1COc2ccccc2O1", "note": "(centres undefined)", "activation": "inconclusive: 55.8%"}, {"compound": "Cc1ccc(C(C(=O)NC2CCCC2)N(C(=O)Cc2cccs2)c2cccc(C)c2C)o1", "note": "(centres undefined)", "activation": "inconclusive: 38.4%"}, {"compound": "COc1cccc(-c2nnn(CC(=O)N3CCC(C)CC3)n2)c1", "activation": "inconclusive: 33.4%"}]}]}
